For 5 molecules, binding results are on record in publication PMC4323032.

By UniProt entry, the sequences of proteins in these tests, tags left out. Residues count along the entry.
UniProt P53395, residues 62-482: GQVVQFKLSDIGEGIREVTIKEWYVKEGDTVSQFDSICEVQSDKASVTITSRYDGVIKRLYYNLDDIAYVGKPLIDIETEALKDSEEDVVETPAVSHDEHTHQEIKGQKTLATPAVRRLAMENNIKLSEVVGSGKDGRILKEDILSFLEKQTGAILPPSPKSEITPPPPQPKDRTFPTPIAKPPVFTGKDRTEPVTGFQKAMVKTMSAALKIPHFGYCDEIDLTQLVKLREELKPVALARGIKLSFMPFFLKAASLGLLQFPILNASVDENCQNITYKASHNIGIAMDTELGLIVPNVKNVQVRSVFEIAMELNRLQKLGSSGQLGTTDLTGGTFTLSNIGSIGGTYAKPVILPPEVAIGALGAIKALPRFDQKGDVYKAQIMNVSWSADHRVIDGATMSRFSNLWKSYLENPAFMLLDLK
UniProt P07724, residues 25-608: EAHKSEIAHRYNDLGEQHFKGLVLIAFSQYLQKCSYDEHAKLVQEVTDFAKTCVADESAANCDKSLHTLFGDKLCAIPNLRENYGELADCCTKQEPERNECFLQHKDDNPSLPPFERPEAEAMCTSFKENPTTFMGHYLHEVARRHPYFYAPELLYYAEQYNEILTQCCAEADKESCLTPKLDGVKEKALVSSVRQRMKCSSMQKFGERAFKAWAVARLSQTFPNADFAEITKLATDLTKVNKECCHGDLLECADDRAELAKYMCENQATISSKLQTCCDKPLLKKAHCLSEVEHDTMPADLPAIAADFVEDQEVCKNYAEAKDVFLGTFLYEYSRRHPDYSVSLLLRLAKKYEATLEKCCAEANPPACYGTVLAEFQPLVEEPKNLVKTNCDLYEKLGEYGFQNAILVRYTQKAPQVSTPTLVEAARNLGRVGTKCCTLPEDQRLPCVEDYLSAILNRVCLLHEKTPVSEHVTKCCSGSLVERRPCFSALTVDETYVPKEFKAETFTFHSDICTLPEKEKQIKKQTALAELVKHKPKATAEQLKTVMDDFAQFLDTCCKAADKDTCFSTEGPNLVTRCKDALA
UniProt P11182, residues 62-482: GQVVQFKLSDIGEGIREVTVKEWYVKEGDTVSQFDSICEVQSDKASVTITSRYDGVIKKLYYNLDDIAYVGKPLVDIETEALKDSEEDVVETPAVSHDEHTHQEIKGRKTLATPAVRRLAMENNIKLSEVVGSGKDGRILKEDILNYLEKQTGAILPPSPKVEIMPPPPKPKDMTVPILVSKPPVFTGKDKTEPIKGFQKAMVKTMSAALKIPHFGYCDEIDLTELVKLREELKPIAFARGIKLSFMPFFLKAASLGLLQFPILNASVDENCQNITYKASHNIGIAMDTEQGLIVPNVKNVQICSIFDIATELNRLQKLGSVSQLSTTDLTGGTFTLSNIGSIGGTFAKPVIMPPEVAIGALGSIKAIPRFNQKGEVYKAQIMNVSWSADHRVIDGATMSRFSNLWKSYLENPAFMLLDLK

No constants are given. Whether binding was seen depends on the method and setting. Binding seen in cells or lysates may run through a third protein. Some binding calls cover weakened binding; strength is not graded here. For part of these data: Tags and fused reporters may be left off the sequences shown.

For experiment [1], the target named is T1, HA-tagged Prdx V C73S (mouse) (UniProt P99029).
T1 sequence: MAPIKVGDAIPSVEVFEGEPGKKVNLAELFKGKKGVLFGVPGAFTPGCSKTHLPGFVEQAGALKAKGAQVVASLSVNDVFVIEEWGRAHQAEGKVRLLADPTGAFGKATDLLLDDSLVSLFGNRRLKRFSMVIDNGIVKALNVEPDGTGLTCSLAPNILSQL
Description: co-IP; reverse immunoprecipitation: HEK293 co-transfected with myc-DBT and HA-Prdx V (WT or cysteine mutant), normoxia or hypoxia; precipitated through HA-Prdx V, myc-DBT detected.

For experiment [2], the target named is T2, HA-tagged wild-type Prdx V (mouse) (UniProt P99029).
T2 sequence: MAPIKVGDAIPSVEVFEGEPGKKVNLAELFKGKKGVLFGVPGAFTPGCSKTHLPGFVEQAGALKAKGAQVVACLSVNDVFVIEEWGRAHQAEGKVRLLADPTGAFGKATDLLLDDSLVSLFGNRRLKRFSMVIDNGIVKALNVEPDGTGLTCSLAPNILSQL
Described as above.

Experiment [3] has as its target Dihydrolipoamide branched chain transacylase E2 (lipoamide acyltransferase component of branched chain α-keto acid dehydrogenase complex, mitochondrial) (mouse (endogenous in kidney)) (UniProt P53395). Description: co-IP; endogenous proteins of normoxic and hypoxic mouse kidney lysate; precipitated with antibody to DBT, Rab43, Pccb or Alb, blot probed with Prdx V antibody.

The target in experiment [4] is T3, Propionyl CoA carboxylase beta chain, mitochondrial (mouse (endogenous in kidney)) (UniProt Q99MN9).
T3 sequence: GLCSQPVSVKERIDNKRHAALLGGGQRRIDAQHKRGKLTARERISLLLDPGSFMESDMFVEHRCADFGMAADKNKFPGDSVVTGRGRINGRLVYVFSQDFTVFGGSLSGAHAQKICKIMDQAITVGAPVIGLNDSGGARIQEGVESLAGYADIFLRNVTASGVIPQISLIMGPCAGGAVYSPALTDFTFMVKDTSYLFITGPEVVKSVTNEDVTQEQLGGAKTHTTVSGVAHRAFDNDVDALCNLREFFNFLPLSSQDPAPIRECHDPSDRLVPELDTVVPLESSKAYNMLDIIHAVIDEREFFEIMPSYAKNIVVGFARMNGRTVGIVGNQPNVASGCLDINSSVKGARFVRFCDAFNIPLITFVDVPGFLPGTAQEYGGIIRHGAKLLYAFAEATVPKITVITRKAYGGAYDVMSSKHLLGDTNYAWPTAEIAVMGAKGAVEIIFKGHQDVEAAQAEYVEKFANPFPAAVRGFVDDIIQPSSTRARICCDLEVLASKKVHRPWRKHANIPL
Described as above.

In experiment [5] the target is T4, Ras related protein Rab 43 isoform b (mouse (endogenous in kidney)) (UniProt Q8CG50).
T4 sequence: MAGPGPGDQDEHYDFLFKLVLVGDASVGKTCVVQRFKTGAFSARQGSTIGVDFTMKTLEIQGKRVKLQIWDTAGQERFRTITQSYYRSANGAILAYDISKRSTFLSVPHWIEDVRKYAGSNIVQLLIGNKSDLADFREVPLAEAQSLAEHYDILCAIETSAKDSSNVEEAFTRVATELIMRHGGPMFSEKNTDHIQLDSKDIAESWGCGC
The experiment is described as above.

Experiment [6] concerns the target Serum albumin (mouse (endogenous in kidney)) (UniProt P07724). The description is as above.
The target of a further experiment is myc-tagged DBT (human) (UniProt P11182). Description: co-IP; HEK293 co-transfected with myc-DBT and HA-Prdx V (WT or cysteine mutant), normoxia or hypoxia (1% O2, 6 h); total lysate precipitated with anti-myc-conjugated agarose, HA-Prdx V detected.

Take “myc-tagged DBT (from UniProt P11182 62-482)”: the binding result in experiment [1] and in experiment [2] was “binds” each time.

B1: Peroxiredoxin V (protein, UniProt P99029 49-210)
chain: MAPIKVGDAIPSVEVFEGEPGKKVNLAELFKGKKGVLFGVPGAFTPGCSKTHLPGFVEQAGALKAKGAQVVACLSVNDVFVIEEWGRAHQAEGKVRLLADPTGAFGKATDLLLDDSLVSLFGNRRLKRFSMVIDNGIVKALNVEPDGTGLTCSLAPNILSQL
As for B1, the binding entry in experiment [3], in experiment [4], in experiment [5] and in experiment [6] was “binds” in each case.

B2: HA-tagged Prdx V C152S (protein, UniProt P99029 49-210)
chain: MAPIKVGDAIPSVEVFEGEPGKKVNLAELFKGKKGVLFGVPGAFTPGCSKTHLPGFVEQAGALKAKGAQVVACLSVNDVFVIEEWGRAHQAEGKVRLLADPTGAFGKATDLLLDDSLVSLFGNRRLKRFSMVIDNGIVKALNVEPDGTGLTSSLAPNILSQL
Take B2: the binding entry in the experiment with myc-tagged DBT (human) is “binds”.

B3: HA-tagged Prdx V C73S (protein, UniProt P99029 49-210)
chain: MAPIKVGDAIPSVEVFEGEPGKKVNLAELFKGKKGVLFGVPGAFTPGCSKTHLPGFVEQAGALKAKGAQVVASLSVNDVFVIEEWGRAHQAEGKVRLLADPTGAFGKATDLLLDDSLVSLFGNRRLKRFSMVIDNGIVKALNVEPDGTGLTCSLAPNILSQL
Take B3: the binding result with myc-tagged DBT (human) is “binds”.

B4: HA-tagged wild-type Prdx V (protein, UniProt P99029 49-210)
chain: MAPIKVGDAIPSVEVFEGEPGKKVNLAELFKGKKGVLFGVPGAFTPGCSKTHLPGFVEQAGALKAKGAQVVACLSVNDVFVIEEWGRAHQAEGKVRLLADPTGAFGKATDLLLDDSLVSLFGNRRLKRFSMVIDNGIVKALNVEPDGTGLTCSLAPNILSQL
In the case of B4, the binding result with myc-tagged DBT (human) is reported as “binds”.
